Source: publication PMC12192683
These are yes or no findings as the source states them, for the method shown. Some binding calls cover weakened binding; strength is not graded here.

By UniProt entry, the sequences of proteins in these tests, tags left out. Residues count along the entry.
UniProt Q07954, residues 20-4544: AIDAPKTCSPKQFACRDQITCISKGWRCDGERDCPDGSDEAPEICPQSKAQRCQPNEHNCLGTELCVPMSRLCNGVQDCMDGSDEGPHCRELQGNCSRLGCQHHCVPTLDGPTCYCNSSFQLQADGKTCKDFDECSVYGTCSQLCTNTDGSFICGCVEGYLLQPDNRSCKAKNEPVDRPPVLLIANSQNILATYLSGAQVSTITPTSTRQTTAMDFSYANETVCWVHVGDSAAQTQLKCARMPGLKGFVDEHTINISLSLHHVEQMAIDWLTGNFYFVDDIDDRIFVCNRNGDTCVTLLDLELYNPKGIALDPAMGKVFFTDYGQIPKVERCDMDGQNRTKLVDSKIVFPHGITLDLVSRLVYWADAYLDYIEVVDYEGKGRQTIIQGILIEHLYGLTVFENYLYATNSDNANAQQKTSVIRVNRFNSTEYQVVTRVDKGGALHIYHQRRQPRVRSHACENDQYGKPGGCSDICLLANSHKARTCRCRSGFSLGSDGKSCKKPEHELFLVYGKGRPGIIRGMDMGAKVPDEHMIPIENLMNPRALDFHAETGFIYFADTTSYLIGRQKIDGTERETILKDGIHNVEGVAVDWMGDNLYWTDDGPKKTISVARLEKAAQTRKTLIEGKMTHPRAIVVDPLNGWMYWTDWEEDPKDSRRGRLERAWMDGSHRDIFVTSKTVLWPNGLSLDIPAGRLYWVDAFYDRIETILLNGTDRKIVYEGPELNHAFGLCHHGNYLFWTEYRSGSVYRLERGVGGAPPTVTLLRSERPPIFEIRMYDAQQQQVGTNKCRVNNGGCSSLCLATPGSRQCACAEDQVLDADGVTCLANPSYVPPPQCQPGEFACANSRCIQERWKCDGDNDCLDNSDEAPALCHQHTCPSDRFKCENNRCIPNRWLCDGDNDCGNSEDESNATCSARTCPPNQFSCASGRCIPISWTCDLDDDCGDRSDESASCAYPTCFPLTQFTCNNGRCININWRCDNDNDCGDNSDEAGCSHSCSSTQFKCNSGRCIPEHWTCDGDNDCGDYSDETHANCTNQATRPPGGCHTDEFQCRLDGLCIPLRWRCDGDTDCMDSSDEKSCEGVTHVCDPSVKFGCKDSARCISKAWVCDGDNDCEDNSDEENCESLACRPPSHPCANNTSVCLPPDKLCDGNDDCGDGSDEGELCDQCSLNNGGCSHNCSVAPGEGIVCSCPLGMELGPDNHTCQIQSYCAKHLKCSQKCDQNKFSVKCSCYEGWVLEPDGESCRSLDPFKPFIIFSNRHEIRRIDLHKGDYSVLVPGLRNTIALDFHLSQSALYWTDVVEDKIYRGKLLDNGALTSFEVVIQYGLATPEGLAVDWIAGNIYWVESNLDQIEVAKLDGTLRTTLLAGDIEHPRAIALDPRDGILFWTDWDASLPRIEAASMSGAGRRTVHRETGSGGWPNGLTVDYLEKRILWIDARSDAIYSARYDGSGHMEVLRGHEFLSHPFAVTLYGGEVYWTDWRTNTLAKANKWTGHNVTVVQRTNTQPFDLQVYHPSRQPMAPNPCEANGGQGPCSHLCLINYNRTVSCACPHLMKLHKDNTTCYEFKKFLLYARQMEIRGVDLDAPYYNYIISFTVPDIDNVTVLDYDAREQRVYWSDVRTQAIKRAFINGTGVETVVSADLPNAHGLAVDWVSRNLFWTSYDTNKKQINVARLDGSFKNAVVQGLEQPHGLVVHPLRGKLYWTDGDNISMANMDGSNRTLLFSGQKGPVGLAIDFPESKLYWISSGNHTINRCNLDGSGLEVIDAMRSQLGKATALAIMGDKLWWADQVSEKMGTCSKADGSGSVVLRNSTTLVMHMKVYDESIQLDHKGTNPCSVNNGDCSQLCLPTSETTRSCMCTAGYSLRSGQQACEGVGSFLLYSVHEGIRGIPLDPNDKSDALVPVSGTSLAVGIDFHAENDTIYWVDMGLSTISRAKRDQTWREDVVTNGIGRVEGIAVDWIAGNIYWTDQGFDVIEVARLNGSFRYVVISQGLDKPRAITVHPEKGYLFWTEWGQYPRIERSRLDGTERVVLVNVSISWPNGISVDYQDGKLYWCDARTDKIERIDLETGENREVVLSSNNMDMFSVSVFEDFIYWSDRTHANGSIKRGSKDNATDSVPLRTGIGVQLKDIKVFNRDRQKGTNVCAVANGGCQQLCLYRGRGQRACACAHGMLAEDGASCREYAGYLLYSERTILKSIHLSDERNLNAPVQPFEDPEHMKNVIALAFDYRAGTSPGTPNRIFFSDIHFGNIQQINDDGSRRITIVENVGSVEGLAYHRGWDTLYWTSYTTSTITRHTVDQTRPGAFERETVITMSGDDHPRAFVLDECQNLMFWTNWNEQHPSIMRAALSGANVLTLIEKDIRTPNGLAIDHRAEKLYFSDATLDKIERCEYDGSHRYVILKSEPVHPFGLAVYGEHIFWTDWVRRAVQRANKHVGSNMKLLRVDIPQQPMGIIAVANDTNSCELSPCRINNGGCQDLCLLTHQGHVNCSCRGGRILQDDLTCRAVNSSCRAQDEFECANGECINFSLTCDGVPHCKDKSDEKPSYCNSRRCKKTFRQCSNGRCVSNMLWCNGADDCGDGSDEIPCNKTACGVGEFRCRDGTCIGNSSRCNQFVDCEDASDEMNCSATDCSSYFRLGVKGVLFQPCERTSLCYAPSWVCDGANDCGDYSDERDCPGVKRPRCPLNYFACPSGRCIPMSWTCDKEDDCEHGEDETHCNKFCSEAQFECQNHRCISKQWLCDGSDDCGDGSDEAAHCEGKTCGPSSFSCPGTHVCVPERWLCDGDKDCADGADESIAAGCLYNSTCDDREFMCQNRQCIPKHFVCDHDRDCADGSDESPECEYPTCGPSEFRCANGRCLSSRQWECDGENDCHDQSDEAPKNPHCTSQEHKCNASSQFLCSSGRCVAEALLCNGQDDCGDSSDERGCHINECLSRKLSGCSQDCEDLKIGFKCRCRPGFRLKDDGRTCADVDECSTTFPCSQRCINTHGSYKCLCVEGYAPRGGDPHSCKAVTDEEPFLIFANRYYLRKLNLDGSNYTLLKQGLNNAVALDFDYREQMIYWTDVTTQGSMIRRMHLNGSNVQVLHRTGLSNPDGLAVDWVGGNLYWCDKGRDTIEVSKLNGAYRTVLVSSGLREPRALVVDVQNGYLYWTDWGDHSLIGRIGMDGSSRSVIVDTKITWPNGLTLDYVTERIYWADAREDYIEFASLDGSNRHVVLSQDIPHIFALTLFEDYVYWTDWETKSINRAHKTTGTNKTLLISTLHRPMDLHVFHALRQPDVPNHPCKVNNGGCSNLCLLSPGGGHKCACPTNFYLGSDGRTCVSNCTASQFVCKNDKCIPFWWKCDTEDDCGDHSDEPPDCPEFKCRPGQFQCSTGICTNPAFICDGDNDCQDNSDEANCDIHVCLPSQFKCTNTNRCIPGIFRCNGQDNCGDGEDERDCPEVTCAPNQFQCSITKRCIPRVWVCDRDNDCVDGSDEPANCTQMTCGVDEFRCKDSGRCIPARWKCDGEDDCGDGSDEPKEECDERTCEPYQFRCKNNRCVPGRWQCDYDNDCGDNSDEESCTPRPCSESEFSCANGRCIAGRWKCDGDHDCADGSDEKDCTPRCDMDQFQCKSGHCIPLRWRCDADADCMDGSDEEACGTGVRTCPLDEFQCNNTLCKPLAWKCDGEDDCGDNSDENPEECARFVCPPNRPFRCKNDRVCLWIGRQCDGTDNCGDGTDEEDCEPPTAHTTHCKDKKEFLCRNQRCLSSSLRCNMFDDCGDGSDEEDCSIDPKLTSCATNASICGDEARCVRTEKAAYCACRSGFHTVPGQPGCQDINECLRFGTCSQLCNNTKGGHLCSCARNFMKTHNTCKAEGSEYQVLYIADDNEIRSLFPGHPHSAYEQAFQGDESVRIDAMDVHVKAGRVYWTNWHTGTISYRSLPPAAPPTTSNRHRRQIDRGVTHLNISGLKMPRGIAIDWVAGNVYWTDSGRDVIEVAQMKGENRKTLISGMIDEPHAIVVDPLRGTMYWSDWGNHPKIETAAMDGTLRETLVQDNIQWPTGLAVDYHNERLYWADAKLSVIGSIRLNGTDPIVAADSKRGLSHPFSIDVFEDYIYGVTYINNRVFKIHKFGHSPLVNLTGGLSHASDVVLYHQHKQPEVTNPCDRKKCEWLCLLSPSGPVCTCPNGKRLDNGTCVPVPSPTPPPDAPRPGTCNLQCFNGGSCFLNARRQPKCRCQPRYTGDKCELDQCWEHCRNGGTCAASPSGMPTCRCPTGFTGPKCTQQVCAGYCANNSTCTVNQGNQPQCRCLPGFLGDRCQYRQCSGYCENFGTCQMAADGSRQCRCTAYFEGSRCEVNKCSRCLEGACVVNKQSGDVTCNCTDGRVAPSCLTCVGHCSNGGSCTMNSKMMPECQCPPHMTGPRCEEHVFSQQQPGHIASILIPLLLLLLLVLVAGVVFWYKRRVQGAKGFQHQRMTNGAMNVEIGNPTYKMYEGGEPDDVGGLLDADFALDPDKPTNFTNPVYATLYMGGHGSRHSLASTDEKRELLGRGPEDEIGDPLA
UniProt P30533, residues 35-357: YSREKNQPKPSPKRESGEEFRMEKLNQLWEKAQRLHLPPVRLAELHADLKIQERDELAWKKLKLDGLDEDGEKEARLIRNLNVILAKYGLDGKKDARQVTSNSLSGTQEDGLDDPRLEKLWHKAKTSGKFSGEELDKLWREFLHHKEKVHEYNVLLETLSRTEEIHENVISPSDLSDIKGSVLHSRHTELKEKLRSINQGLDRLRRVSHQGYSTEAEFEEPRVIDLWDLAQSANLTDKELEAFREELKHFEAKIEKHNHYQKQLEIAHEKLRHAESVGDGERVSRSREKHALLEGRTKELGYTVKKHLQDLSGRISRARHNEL

Molecular target: low-density lipoprotein receptor-related protein 1 (LRP1), full-length, purified from human placenta (human) (UniProt Q07954)
Experiment: SPR; LRP1 amine-coupled to CM5 chip; 1 uM RAP co-injected with 500 nM S1 subunit; both purified

“receptor-associated protein (RAP) (from UniProt P30533 35-357)” was tested, and the binding was “binds”.
